Measured values from the supplement of paper PMC10849652.
This is one part of the list.

By UniProt entry, the sequences of proteins in these tests, tags left out. Where a name states a change or a piece, a line headed by the entry shows the natural chain unless it says otherwise.
UniProt P49903: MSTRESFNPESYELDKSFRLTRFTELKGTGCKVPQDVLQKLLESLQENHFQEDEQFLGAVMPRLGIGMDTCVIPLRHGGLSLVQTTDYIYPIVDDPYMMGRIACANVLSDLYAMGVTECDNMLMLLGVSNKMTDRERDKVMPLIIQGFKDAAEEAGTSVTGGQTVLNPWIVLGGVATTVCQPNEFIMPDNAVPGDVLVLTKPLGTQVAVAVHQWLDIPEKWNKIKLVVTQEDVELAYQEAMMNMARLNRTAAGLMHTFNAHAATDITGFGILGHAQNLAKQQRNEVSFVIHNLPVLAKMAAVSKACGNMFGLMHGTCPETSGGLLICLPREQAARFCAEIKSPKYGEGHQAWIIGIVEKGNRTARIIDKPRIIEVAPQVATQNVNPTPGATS
UniProt Q9Y6D0, whole entry, looked up: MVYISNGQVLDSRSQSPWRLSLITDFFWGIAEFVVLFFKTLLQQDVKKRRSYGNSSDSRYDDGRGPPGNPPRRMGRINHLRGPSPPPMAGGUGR
UniProt A1X283: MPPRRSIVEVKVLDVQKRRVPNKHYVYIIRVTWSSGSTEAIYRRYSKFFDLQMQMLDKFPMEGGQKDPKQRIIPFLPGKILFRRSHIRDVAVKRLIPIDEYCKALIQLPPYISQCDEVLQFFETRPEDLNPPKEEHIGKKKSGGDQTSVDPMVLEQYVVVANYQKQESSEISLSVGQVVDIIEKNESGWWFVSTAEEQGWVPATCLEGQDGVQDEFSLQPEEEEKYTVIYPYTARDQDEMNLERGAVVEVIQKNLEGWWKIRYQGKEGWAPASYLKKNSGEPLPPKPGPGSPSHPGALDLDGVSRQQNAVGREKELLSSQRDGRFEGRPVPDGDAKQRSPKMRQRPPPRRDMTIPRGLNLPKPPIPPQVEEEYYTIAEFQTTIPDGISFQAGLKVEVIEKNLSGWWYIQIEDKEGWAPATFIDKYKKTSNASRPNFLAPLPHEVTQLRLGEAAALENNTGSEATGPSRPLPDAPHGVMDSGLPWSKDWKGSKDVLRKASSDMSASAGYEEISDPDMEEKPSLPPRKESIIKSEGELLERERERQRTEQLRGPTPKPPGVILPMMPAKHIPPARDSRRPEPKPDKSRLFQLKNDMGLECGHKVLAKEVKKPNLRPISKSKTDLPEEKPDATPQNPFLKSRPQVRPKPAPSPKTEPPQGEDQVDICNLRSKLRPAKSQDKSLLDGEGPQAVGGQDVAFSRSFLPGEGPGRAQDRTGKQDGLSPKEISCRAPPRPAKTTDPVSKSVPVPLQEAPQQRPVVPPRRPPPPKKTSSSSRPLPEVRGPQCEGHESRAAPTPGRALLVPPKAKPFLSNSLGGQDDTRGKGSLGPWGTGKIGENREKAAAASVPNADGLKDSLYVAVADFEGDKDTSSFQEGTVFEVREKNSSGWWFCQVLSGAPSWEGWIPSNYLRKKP
UniProt Q9GZR1: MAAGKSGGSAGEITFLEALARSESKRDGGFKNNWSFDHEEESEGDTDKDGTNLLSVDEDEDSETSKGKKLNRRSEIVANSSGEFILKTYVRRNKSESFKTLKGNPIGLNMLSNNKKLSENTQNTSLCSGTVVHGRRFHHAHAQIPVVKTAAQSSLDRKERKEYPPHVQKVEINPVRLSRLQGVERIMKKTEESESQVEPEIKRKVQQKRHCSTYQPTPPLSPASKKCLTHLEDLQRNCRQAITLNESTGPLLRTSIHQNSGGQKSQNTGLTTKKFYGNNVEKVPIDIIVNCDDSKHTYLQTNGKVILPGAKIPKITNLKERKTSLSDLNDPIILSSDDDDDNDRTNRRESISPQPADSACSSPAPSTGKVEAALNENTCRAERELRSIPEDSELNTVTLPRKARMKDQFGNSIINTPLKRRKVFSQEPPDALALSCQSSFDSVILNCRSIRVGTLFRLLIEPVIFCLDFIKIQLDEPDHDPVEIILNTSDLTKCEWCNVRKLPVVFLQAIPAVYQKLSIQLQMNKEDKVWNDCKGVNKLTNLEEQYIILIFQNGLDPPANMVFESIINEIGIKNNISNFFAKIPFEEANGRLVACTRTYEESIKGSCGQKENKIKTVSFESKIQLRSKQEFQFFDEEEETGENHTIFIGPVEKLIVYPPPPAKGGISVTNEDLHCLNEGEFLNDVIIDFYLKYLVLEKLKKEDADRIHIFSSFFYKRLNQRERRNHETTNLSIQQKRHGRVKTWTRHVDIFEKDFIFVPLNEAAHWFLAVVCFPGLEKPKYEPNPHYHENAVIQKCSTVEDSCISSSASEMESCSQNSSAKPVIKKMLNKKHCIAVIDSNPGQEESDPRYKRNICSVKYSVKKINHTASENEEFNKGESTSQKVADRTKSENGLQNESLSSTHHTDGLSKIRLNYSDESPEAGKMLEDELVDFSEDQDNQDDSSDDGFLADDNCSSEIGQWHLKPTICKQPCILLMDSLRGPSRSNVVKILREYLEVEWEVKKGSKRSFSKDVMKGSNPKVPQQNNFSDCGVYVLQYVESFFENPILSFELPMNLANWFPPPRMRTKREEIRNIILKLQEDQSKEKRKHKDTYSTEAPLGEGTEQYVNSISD
UniProt Q99719: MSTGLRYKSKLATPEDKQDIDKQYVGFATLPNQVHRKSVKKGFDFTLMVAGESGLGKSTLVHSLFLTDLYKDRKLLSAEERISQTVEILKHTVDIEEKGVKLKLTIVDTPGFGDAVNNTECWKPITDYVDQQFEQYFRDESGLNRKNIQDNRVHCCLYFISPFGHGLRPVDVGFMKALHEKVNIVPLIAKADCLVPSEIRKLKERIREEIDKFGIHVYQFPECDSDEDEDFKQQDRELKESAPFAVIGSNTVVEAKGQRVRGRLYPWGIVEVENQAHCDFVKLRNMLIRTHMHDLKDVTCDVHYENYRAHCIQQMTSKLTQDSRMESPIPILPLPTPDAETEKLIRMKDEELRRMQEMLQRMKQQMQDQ
UniProt Q9BX95: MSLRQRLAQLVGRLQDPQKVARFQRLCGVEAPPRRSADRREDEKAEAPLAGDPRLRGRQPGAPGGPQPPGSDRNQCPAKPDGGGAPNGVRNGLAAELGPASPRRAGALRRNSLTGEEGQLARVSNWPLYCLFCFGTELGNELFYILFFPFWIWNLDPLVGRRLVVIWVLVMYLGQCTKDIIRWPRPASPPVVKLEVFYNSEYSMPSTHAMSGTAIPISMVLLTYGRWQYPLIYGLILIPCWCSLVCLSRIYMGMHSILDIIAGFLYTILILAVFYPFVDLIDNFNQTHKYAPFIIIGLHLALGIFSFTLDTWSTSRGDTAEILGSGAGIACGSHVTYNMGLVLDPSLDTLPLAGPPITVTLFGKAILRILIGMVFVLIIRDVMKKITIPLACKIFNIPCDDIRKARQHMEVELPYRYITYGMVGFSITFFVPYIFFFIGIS
UniProt P50454: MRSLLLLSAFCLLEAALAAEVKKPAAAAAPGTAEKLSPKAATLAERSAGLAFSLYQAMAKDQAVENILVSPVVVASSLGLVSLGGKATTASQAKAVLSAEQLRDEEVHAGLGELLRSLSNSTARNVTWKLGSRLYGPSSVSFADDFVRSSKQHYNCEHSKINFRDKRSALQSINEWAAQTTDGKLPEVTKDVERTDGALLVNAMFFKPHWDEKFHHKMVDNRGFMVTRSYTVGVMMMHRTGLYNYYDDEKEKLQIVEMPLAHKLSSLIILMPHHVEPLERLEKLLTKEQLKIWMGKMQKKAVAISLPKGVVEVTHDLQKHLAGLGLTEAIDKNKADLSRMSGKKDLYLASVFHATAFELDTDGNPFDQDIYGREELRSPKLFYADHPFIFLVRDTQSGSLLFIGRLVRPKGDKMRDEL
UniProt Q96EB6: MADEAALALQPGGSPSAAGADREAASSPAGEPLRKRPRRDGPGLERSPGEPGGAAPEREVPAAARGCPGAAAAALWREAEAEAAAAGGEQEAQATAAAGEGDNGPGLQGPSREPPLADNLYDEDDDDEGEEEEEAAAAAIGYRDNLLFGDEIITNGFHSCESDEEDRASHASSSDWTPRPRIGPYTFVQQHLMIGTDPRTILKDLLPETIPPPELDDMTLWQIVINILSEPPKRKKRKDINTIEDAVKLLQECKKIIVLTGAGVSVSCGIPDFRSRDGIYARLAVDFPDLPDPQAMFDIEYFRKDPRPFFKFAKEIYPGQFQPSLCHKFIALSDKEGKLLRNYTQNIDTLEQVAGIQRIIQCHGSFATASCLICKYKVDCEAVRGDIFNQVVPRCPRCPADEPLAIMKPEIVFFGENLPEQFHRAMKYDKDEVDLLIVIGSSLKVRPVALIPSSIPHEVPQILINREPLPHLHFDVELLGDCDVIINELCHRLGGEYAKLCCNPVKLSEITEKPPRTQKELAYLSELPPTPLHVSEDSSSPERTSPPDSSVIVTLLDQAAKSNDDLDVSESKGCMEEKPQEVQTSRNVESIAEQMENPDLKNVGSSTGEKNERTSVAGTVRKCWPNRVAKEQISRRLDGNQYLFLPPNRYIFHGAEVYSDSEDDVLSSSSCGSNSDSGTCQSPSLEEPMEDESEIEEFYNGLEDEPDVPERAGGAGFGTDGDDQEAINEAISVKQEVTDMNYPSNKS
UniProt Q587I9: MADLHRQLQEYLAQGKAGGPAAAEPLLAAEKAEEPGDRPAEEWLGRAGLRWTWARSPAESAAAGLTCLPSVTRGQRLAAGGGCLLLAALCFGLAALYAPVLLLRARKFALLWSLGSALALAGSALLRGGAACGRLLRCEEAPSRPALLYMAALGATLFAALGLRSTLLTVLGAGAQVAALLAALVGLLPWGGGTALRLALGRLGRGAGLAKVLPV
UniProt Q6P4A7: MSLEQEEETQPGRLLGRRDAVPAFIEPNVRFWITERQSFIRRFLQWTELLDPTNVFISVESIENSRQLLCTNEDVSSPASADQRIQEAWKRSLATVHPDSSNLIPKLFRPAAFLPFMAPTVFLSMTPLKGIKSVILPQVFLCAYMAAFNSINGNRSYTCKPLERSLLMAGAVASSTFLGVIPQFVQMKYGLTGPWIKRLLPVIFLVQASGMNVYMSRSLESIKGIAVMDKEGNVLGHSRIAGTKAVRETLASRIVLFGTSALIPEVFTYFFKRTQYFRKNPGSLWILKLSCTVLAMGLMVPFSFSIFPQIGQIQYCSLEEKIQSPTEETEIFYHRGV
UniProt O60239: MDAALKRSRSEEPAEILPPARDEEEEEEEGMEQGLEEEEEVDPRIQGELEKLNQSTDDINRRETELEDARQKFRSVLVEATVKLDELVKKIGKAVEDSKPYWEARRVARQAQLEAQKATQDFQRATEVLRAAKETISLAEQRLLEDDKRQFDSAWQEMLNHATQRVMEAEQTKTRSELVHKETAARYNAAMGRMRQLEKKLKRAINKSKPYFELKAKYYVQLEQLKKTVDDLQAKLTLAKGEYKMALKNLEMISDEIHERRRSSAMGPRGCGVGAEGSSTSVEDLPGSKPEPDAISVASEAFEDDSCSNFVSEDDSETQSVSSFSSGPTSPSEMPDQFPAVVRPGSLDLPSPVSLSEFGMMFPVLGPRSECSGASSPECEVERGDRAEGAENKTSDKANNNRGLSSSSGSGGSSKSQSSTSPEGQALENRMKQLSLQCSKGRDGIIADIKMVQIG
UniProt P34896: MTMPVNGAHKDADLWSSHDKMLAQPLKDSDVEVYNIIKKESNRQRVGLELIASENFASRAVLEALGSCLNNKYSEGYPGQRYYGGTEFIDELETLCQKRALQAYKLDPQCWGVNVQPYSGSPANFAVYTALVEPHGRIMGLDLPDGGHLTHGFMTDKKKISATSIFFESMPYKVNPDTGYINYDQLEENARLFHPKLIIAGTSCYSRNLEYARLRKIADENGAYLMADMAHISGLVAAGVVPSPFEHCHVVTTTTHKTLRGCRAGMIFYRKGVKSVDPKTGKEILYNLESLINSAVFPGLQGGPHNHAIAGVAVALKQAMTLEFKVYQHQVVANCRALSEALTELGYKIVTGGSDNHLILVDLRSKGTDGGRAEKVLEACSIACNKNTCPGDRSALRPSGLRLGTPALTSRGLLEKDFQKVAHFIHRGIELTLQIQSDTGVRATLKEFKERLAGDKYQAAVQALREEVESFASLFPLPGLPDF
UniProt Q9HAT2: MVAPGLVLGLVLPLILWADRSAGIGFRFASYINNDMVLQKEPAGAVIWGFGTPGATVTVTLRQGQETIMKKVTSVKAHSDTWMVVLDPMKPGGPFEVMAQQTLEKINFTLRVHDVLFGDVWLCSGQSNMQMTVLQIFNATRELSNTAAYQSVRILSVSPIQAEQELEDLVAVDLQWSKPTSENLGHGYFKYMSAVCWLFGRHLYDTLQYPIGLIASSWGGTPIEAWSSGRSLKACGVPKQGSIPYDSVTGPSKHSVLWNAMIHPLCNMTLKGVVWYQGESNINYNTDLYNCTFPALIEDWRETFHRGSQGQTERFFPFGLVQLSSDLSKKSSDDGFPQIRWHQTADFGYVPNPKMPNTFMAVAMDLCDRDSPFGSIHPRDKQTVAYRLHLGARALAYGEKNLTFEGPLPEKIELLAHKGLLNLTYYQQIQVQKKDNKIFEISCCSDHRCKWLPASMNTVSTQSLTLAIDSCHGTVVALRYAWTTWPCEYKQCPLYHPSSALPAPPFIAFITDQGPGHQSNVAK

Legend:
Assay in all cases: log2 fold change, soluble protein after heating vs DMSO (PISA); higher = thermal stabilisation; K562 cells, 10 uM, 30 min; active = over 0.2 and 3.5 SD of the protein, either way, in both replicates (recomputed)
[1] = compound: NC(=O)Nc1cc(-c2cccc(F)c2)sc1C(=O)N[C@H]1CCCNC1
Summary of the method: (§1)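 K562 cells at 2×10^6 cells/mL were treated with 10 μM compound for 30 min. Aliquots were heated for 3 min across 48°C-58°C, pooled, and extracted in PBS with 0.5% NP-40 at 4°C; soluble protein was the supernatant after 21,000xg for 90 min. Soluble protein was quantified by TMTpro 16plex LC-MS/MS with channel sums equalised, and reported as log2 fold change in thermal stability against DMSO controls, with values from duplicates.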

[2] = compound: NC(=O)c1cnc(N[C@@H]2CCCC[C@@H]2N)nc1Nc1cccc(-n2nccn2)c1
Summary of the method: as §1

[3] = compound: NC1(c2ccc(-c3nc4ccn5c(=O)[nH]nc5c4cc3-c3ccccc3)cc2)CCC1
Summary of the method: as §1

[4] = compound: NCC(=O)Nc1ccc(-n2nc(C(F)(F)F)cc2-c2ccc3c(ccc4ccccc43)c2)cc1
Summary of the method: as §1

entinostat = compound: Nc1ccccc1NC(=O)c1ccc(CNC(=O)OCc2cccnc2)cc1 [entinostat]
Summary of the method: as §1

vorinostat = compound: O=C(CCCCCCC(=O)Nc1ccccc1)NO [vorinostat]
Summary of the method: as §1

citarinostat = compound: O=C(CCCCCCNC(=O)c1cnc(N(c2ccccc2)c2ccccc2Cl)nc1)NO [citarinostat]
Summary of the method: as §1

silmitasertib = compound: O=C(O)c1ccc2c(c1)nc(Nc1cccc(Cl)c1)c1ccncc12 [silmitasertib]
Summary of the method: as §1

[5] = compound: O=C1NC(=O)C(c2cnc3ccccn23)=C1c1cn2c3c(cc(F)cc13)CN(C(=O)N1CCCCC1)CC2
Summary of the method: as §1

[6] = compound: c1cc(OCCN2CCCCC2)cc(-c2n[nH]c3ccc(-c4nnc[nH]4)cc23)c1
Summary of the method: as §1

entospletinib = compound: c1cn2cc(-c3ccc4cn[nH]c4c3)nc(Nc3ccc(N4CCOCC4)cc3)c2n1 [entospletinib]
Summary of the method: as §1

Measured: log2 fold change

SET isoform 2 (UniProt Q01105)
inactive: [1] 0.044 | [2] -0.006 | [3] 0 | [4] 0.044 | entinostat 0 | vorinostat -0.039 | citarinostat 0.005 | silmitasertib -0.015 | [5] 0.012 | [6] -0.002 | entospletinib 0.049

SEPHS1 (UniProt P49903)
inactive: [1] 0.071 | [2] 0.015 | [3] 0.006 | [4] -0.006 | entinostat 0.018 | vorinostat -0.014 | citarinostat 0.06 | silmitasertib -0.017 | [5] 0.08 | [6] -0.01 | entospletinib -0.027

SELENOK (UniProt Q9Y6D0)
inactive: [1] -0.053 | [2] 0 | [3] 0.111 | [4] 0.02 | entinostat -0.072 | vorinostat 0.274 | citarinostat 0.265 | silmitasertib 0.235 | [5] 0.219 | [6] -0.207 | entospletinib -0.039

SELENOH (UniProt Q8IZQ5)
inactive: [1] 0.227 | [2] 0.194 | [3] 0.011 | [4] 0.049 | entinostat 0.066 | vorinostat -0.007 | citarinostat 0.067 | silmitasertib 0.011 | [5] 0.038 | [6] 0.053

SH3PXD2B (UniProt A1X283)
inactive: [1] 0.066 | [2] 0.248 | [3] -0.082 | [4] 0.052 | entinostat -0.056 | vorinostat -0.128 | citarinostat 0.032 | silmitasertib -0.108 | [5] 0.009 | [6] 0.026

SGO1 (UniProt Q5FBB7)
inactive: [1] 0.008 | [2] -0.049 | [3] -0.031 | [4] 0.038 | entinostat -0.021 | vorinostat 0.004 | citarinostat 0.069 | silmitasertib 0.042 | [5] 0.002 | [6] -0.038 | entospletinib -0.036

SENP6 (UniProt Q9GZR1)
inactive: [1] 0.011 | [2] -0.009 | [3] -0.073 | [4] -0.023 | entinostat -0.019 | vorinostat -0.021 | citarinostat 0.04 | silmitasertib -0.118 | [5] 0.027 | [6] -0.049

SEPTIN5 (UniProt Q99719)
inactive: [1] -0.005 | [2] -0.012 | [3] -0.011 | [4] -0.004 | entinostat -0.017 | vorinostat -0.001 | citarinostat 0.059 | silmitasertib -0.038 | [5] -0.013 | [6] -0.021

SETD3 (UniProt Q86TU7)
inactive: [1] -0.007 | [2] -0.019 | [3] -0.045 | [4] -0.002 | entinostat -0.02 | vorinostat -0.035 | citarinostat -0.015 | silmitasertib 0.007 | [5] -0.022 | [6] 0.031

SGPP1 (UniProt Q9BX95)
inactive: [1] -0.032 | [2] -0.002 | [3] -0.113 | [4] -0.055 | entinostat -0.015 | vorinostat 0.015 | citarinostat -0.177 | silmitasertib 0.186 | [5] -0.048 | [6] 0.049 | entospletinib -0.216

SF3A1 (UniProt Q15459)
inactive: [1] 0.009 | [2] -0.01 | [3] -0.007 | [4] 0.009 | entinostat 0.038 | vorinostat -0.011 | citarinostat 0.019 | silmitasertib 0.004 | [5] 0.041 | [6] -0.023 | entospletinib 0.011

SH3GL1 (UniProt Q99961)
inactive: [1] -0.049 | [2] -0.088 | [3] -0.106 | [4] -0.032 | entinostat 0.143 | vorinostat 0.082 | citarinostat 0.068 | silmitasertib 0.028 | [5] 0.006 | [6] -0.041

SERPINH1 (UniProt P50454)
inactive: [1] -0.025 | [2] 0.034 | [3] -0.014 | [4] 0.016 | entinostat 0 | vorinostat -0.008 | citarinostat 0.025 | silmitasertib 0.003 | [5] -0.026 | [6] -0.036 | entospletinib 0.003

SERPINA12 (UniProt Q8IW75)
inactive: [1] 0.066 | [3] -0.077 | [4] 0.24 | entinostat 0.063 | citarinostat -0.183 | silmitasertib 0.101 | [5] -0.265 | [6] 0.997 | entospletinib 0.009

SERPINF1 (UniProt P36955)
inactive: [1] -0.03 | [2] -0.007 | [3] 0.176 | [4] 0.023 | entinostat -0.059 | vorinostat -0.058 | citarinostat -0.008 | silmitasertib 0.039 | [5] -0.002 | [6] 0.384 | entospletinib 0.066

SIK3 (UniProt H0Y4E8)
inactive: [1] -0.022 | [2] 0.08 | [3] -0.22 | [4] -0.038 | entinostat -0.075 | vorinostat -0.053 | citarinostat -0.053 | silmitasertib 0.054 | [6] -0.098

Quoted at random: 2 records from the list, in no set order.
SERPINF1 (UniProt P36955)
inactive: [1] -0.03 | [2] -0.007 | [3] 0.176 | [4] 0.023 | entinostat -0.059 | vorinostat -0.058 | citarinostat -0.008 | silmitasertib 0.039 | [5] -0.002 | [6] 0.384 | entospletinib 0.066

SERPINA12 (UniProt Q8IW75)
inactive: [1] 0.066 | [3] -0.077 | [4] 0.24 | entinostat 0.063 | citarinostat -0.183 | silmitasertib 0.101 | [5] -0.265 | [6] 0.997 | entospletinib 0.009

Further entries.

SKA3 (UniProt Q8IX90)
inactive: [1] 0.052 | [3] 0.139 | [4] -0.194 | entinostat 0.014 | vorinostat 0.096 | citarinostat -0.02 | silmitasertib 0.071 | [5] 0.131 | [6] -0.014 | entospletinib 0.079

SFT2D2 (UniProt O95562)
inactive: [1] -0.076 | [2] 0.198 | [3] 0.017 | [4] 0.024 | entinostat 0.034 | vorinostat -0.104 | citarinostat -0.074 | silmitasertib 0.029 | [5] -0.067 | [6] 0.082 | entospletinib 0.129

SIKE1 (UniProt Q9BRV8)
inactive: [1] 0.003 | [2] -0.01 | [3] -0.009 | [4] 0.054 | entinostat -0.072 | vorinostat 0.036 | silmitasertib 0.016 | [5] -0.059

SIRT1 (UniProt Q96EB6)
inactive: [1] -0.044 | [2] -0.011 | [3] -0.013 | [4] -0.075 | entinostat 0.033 | vorinostat 0.001 | citarinostat 0.012 | silmitasertib 0.066 | [5] -0.068 | [6] -0.011 | entospletinib -0.005

SFT2D3 (UniProt Q587I9)
inactive: [1] -0.006 | [3] 0.015 | [4] -0.006 | entinostat -0.079 | vorinostat 0.063 | citarinostat 0.13 | silmitasertib 0.046 | [5] 0.01 | [6] -0.011 | entospletinib 0.017

SFXN4 isoform 3 (UniProt Q6P4A7)
inactive: [1] -0.33 | [2] 0.073 | [4] 0.076 | entinostat -0.134 | vorinostat 0.059 | citarinostat 0.114 | [6] -0.058 | entospletinib -0.123

SELENON (UniProt Q9NZV5)
inactive: [1] 0.101 | [2] -0.163 | [4] -0.277 | entinostat -0.157

SHB (UniProt Q15464)
inactive: [1] 0.02 | [2] -0.063 | [3] -0.358 | entinostat 0.071 | vorinostat 0.061 | silmitasertib 0.044

SH3BP5 (UniProt O60239)
inactive: [1] -0.018 | [2] -0.066 | [3] -0.028 | [4] -0.037 | entinostat 0.01 | vorinostat -0.036 | citarinostat 0.015 | silmitasertib 0.019 | [5] -0.026 | [6] -0.228 | entospletinib 0.023

SERINC1 (UniProt Q9NRX5)
inactive: [1] -0.061 | [2] -0.241 | [3] 0.004 | [4] -0.174 | entinostat -0.009 | citarinostat 0.088 | silmitasertib 0.197 | [5] 0.032 | [6] 0.022

SIAH1 isoform 2 (UniProt Q8IUQ4)
inactive: [1] 0.133 | [2] -0.024 | [4] 0.045 | entinostat -0.001 | vorinostat 0.262 | citarinostat 0.159 | [5] 0.306 | [6] -0.034 | entospletinib -0.182

SHMT1 (UniProt P34896)
inactive: [1] 0.067 | [2] 0.045 | [3] -0.008 | [4] 0.033 | entinostat 0.001 | vorinostat -0.044 | citarinostat 0.027 | silmitasertib 0.002 | [5] 0.024 | [6] -0.013 | entospletinib -0.052

SIAE (UniProt Q9HAT2)
inactive: [1] 0.033 | [2] 0.051 | [4] -0.253 | entinostat -0.011 | vorinostat 0.022 | [5] -0.089

SERGEF (UniProt Q9UGK8)
inactive: [1] -0.044 | [2] -0.03 | [3] -0.091 | [4] 0.061 | entinostat 0.026 | vorinostat 0.114 | citarinostat 0.099 | silmitasertib -0.07 | [5] 0.024 | [6] -0.072 | entospletinib 0.034

SEPTIN5 (UniProt G3XAH0)
inactive: [1] 0.008 | [2] 0.004 | [3] -0.142 | [4] 0.016 | entinostat -0.031 | vorinostat 0.16 | silmitasertib -0.023 | [5] -0.028
